From the supplement of paper PMC10849652
This is one part of the list. Residues, ends and D or L forms follow the SMILES beside them. *: point of attachment. Cbz = O=C(OCc1ccccc1)*

Chains of the proteins cited; added tags and fusions are not shown. Lines headed by an entry give the natural chain unless they say otherwise; changes in a name come on top.
UniProt P07910: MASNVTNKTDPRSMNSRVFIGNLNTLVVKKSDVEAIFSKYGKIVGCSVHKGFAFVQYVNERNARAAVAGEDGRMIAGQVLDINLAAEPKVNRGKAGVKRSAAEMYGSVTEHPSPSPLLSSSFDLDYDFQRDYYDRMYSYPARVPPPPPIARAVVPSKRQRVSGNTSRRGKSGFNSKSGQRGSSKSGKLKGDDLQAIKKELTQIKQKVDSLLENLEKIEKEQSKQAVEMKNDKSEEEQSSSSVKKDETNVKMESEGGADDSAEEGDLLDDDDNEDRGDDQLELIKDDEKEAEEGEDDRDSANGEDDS
UniProt P55795: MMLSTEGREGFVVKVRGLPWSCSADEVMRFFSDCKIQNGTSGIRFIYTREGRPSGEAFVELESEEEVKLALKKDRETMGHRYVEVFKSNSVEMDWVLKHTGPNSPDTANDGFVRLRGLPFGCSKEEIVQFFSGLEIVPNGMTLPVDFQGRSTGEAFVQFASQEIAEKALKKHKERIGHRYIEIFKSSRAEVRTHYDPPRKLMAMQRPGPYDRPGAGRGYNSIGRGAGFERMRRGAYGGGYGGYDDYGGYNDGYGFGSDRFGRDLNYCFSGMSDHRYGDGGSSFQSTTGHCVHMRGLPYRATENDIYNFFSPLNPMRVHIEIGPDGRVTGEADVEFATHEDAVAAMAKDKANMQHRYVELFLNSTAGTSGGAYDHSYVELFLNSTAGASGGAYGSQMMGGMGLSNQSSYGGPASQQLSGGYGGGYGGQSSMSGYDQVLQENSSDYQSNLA
UniProt Q03014: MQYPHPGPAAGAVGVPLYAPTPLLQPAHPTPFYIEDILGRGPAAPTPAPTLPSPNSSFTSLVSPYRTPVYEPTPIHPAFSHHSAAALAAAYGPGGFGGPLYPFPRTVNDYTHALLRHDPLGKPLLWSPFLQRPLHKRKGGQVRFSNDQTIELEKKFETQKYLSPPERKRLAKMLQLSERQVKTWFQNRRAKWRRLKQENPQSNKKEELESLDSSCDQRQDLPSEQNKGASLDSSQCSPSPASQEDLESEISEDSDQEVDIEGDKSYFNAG
UniProt Q14527: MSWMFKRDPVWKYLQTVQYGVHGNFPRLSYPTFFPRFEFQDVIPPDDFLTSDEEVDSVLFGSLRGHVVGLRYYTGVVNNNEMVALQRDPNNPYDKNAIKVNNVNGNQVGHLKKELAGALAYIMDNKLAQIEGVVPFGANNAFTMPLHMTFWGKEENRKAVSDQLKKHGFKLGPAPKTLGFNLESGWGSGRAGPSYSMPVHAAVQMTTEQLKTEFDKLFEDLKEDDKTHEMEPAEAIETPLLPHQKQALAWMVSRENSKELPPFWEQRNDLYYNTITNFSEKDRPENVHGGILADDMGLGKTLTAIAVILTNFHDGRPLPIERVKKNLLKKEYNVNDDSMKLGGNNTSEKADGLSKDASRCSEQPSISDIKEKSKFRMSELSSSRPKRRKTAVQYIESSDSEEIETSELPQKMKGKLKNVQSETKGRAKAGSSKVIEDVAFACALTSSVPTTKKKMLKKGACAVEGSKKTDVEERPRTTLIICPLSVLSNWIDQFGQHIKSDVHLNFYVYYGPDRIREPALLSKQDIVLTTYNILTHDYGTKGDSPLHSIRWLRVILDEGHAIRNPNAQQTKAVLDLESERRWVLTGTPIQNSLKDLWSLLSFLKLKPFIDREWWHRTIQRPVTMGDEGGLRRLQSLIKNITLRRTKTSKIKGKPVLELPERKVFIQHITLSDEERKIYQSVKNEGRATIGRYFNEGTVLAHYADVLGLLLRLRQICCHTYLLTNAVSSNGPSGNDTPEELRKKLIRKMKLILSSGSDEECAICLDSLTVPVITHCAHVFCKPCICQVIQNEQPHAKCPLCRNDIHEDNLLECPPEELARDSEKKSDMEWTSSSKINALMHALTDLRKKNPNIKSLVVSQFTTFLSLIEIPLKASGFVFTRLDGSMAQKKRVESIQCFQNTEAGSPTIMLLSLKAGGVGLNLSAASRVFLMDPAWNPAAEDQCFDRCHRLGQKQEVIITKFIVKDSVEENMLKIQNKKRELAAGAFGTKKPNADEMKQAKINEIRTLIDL
UniProt Q9P0W2: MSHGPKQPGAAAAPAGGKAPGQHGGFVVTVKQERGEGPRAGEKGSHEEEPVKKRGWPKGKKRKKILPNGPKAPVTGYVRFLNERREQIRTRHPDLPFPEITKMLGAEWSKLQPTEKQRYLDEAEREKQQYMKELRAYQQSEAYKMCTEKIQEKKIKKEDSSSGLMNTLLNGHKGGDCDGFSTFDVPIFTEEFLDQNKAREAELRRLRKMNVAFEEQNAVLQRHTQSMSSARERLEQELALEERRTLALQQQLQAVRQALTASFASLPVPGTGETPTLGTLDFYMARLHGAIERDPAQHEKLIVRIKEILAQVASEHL
UniProt P52789: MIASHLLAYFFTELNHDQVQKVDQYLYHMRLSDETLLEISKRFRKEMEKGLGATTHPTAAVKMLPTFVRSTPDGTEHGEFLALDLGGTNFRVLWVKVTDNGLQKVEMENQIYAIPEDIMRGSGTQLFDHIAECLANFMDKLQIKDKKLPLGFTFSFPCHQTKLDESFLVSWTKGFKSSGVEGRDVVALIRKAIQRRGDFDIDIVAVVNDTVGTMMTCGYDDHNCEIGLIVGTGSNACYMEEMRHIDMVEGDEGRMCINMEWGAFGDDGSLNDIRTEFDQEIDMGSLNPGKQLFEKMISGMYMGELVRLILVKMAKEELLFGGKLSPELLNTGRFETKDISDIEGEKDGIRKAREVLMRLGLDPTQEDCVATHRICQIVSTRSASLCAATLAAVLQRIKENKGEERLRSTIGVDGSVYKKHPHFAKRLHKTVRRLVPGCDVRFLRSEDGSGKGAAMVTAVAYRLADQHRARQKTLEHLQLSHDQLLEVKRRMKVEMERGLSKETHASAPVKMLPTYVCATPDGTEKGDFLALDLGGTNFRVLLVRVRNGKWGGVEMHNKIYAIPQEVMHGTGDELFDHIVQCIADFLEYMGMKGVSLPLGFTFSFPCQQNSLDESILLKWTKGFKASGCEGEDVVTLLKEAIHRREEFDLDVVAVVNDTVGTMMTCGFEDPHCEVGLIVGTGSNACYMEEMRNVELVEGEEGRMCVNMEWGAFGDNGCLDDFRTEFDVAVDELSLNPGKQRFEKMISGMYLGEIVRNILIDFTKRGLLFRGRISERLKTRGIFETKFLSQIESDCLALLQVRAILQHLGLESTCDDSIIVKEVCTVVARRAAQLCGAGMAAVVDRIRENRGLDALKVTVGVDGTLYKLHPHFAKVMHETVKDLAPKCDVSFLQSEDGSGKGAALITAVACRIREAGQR
UniProt O15347: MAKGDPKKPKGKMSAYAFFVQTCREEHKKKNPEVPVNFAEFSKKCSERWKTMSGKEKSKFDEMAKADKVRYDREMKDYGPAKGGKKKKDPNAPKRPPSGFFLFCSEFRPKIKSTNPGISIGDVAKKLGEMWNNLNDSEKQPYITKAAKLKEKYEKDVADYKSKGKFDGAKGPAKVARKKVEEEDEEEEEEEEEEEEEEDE
UniProt P54652, whole entry, looked up: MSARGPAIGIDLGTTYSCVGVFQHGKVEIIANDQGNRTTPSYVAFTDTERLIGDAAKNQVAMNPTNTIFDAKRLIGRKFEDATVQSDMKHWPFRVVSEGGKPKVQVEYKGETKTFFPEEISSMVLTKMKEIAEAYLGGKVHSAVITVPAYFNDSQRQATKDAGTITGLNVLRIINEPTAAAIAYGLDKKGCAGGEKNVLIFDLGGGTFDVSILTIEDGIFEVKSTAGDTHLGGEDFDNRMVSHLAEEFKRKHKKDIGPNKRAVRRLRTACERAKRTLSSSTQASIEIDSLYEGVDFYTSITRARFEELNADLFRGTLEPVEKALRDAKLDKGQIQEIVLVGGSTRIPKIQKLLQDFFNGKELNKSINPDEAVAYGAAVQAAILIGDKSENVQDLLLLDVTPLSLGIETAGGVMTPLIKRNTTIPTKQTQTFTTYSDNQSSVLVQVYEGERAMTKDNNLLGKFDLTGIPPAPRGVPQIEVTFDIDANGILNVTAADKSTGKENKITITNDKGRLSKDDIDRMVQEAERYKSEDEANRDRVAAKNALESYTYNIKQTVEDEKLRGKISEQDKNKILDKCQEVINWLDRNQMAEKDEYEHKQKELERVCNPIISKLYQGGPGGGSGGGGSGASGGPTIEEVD
UniProt P14866: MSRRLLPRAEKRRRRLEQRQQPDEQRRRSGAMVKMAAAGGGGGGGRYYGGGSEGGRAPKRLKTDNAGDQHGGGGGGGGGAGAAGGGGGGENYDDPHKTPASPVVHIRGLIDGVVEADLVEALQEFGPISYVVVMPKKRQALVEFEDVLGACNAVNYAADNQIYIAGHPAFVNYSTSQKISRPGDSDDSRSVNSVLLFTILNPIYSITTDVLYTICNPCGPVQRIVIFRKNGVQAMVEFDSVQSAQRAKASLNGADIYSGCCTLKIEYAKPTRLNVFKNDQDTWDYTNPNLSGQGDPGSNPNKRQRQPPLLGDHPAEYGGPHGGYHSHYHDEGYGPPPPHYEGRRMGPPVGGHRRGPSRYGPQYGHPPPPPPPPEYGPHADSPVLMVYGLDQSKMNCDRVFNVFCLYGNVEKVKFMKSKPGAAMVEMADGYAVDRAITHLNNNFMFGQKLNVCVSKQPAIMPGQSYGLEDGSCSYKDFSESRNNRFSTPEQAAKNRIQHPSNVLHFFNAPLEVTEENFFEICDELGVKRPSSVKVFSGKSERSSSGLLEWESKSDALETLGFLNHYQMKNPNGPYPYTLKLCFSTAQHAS

Assays:
Experiment in all cases: log2 fold change, soluble protein after heating vs DMSO (PISA); higher = thermal stabilisation; K562 cells, 10 uM, 30 min; active = over 0.2 and 3.5 SD of the protein, either way, in both replicates (recomputed)
IRAK-1-4 Inhibitor I = compound: C1COCCN1CCN2C3=CC=CC=C3N=C2NC(=O)C4=CC(=CC=C4)[N+](=O)[O-] [IRAK-1-4 Inhibitor I]
In short: (§1)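 K562 cells at 2×10^6 cells/mL were exposed to 10 μM compound for 30 min, then aliquots were heated for 3 min across 48°C-58°C, pooled, and extracted in PBS containing 0.5% NP-40 at 4°C. The supernatant after 21,000xg for 90 min was taken as soluble protein and measured by TMTpro 16plex LC-MS/MS with channel sums equalised. Thermal stability is reported relative to control samples, with values from duplicates. Fold changes are given on a log2 scale.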

ibrutinib = compound: C=CC(=O)N1CCC[C@@H](n2nc(-c3ccc(Oc4ccccc4)cc3)c3c(N)ncnc32)C1 [ibrutinib]
In short: as §1

[1] = compound: CC(=O)c1cnc2ccc(-c3cc(Cl)c(O)c(Cl)c3)nc2c1N[C@H]1CC[C@H](CN(C)C)CC1
In short: as §1

ralimetinib = compound: CC(C)(C)Cn1c(N)nc2ccc(-c3[nH]c(C(C)(C)C)nc3-c3ccc(F)cc3)nc21 [ralimetinib]
In short: as §1

[2] = compound: CC(C)(O)CC(=O)NCCn1ccc2ncnc(Nc3ccc(Oc4cccc(C(F)(F)F)c4)c(Cl)c3)c21
In short: as §1

[3] = compound: CC(C)C1=C2N=C(C=C(N2N=C1)NCC3=CC=CC=C3)NCCCCCCN
In short: as §1

[4] = compound: CC(C)C[C@@H](C=O)NC(=O)[C@H](CC(C)C)NC(=O)[C@H](CC(C)C)NC(=O)OCc1ccccc1
In short: as §1

pinometostat = compound: CC(C)N(C[C@H]1O[C@@H](n2cnc3c(N)ncnc32)[C@H](O)[C@@H]1O)[C@H]1C[C@@H](CCc2nc3cc(C(C)(C)C)ccc3[nH]2)C1 [pinometostat]
In short: as §1

[5] = compound: CC1=C(C2=C(C=C1)C(=O)C3=CC=CC=C3N2CCCN)C
In short: as §1

[6] = compound: CC1=C(C=C(C=C1)NC(=O)C2=CC(=CC=C2)C(C)(C)C#N)NC3=CC4=C(C=C3)N=CN(C4=O)C
In short: as §1

[7] = compound: CC1=C(C=C(C=C1)NC(=O)C2=CC(=CC=C2)N(C)C)NC(=O)C3=CC=C(C=C3)O
In short: as §1

[8] = compound: CC1=CC=C(C=C1)SC2=C3C=C(SC3=CN=C2)C(=O)N
In short: as §1

[9] = compound: CC1=NC(=CC=C1)C2=C(N=C(N2)C(C)(C)C)C3=CC4=NC=CN=C4C=C3
In short: as §1

Nexturastat A = compound: CCCCN(Cc1ccc(C(=O)NO)cc1)C(=O)Nc1ccccc1 [Nexturastat A]
In short: as §1

vemurafenib = compound: CCCS(=O)(=O)Nc1ccc(F)c(C(=O)c2c[nH]c3ncc(-c4ccc(Cl)cc4)cc23)c1F [vemurafenib]
In short: as §1

[10] = compound: CCCS(=O)(=O)Nc1ccc(F)c(C(=O)c2c[nH]c3ncc(Cl)cc23)c1F
In short: as §1

[11] = compound: CCCc1cc(C)[nH]c(=O)c1CNC(=O)c1cc(-c2ccnc(N3CCN(C)CC3)c2)cc2c1cnn2C(C)C
In short: as §1

givinostat = compound: CCN(CC)Cc1ccc2cc(COC(=O)Nc3ccc(C(=O)NO)cc3)ccc2c1 [givinostat]
In short: as §1

barasertib = compound: CCN(CCCOc1ccc2c(Nc3cc(CC(=O)Nc4cccc(F)c4)[nH]n3)ncnc2c1)CCOP(=O)(O)O [barasertib]
In short: as §1

[12] = compound: CC1=C(C(CC(=O)N1)C2=CC=C(C=C2)C(F)(F)F)C(=O)NC3=C(C=C4C(=C3)C=NN4)F
In short: as §1

Measured: log2 fold change

HMGN2 (UniProt P05204)
active: [5] 0.401
inactive: IRAK-1-4 Inhibitor I -0.034 | ibrutinib -0.009 | [1] 0.121 | ralimetinib -0.024 | [2] 0.29 | [3] 0.128 | [4] 0.093 | pinometostat -0.074 | [6] 0.115 | [7] 0.097 | [8] -0.038 | [9] 0.047 | Nexturastat A -0.016 | vemurafenib 0.032 | [10] -0.058 | [11] -0.078 | givinostat -0.019 | barasertib 0.047

HNRNPC isoform 2 (UniProt P07910)
inactive: IRAK-1-4 Inhibitor I -0.332 | ibrutinib 0.043 | [1] -0.365 | ralimetinib 0.106 | [2] 0.195 | [3] -0.197 | [4] 0.281 | pinometostat 0.238 | [5] -0.629 | [6] 0.276 | [7] -0.074 | [8] -0.349 | [9] -0.045 | Nexturastat A 0.449 | vemurafenib -0.055 | [10] -0.191 | [11] 0.028 | givinostat 0.241 | barasertib -0.095

HNRNPH2 (UniProt P55795)
active: [3] -0.345
inactive: IRAK-1-4 Inhibitor I -0.081 | ibrutinib -0.024 | [1] -0.134 | ralimetinib 0.137 | [2] -0.067 | [4] 0.124 | pinometostat 0 | [5] -0.104 | [6] 0.064 | [7] -0.027 | [8] 0.079 | [9] 0.058 | Nexturastat A 0.044 | vemurafenib 0.048 | [10] 0.208 | [11] 0.095 | givinostat 0.109 | barasertib 0.014

HHEX (UniProt Q03014)
inactive: IRAK-1-4 Inhibitor I 0.045 | ibrutinib 0.059 | [1] 0.005 | ralimetinib -0.059 | [2] -0.064 | [3] -0.113 | [4] 0.189 | pinometostat -0.075 | [5] -0.074 | [6] -0.03 | [7] 0.045 | [8] -0.009 | [9] -0.055 | Nexturastat A 0.05 | vemurafenib -0.081 | [10] 0 | [11] 0.026 | givinostat -0.026 | barasertib -0.003

Quoted from the entries so far (2 entries):
HNRNPH2 (UniProt P55795)
active: [3] -0.345
inactive: IRAK-1-4 Inhibitor I -0.081 | ibrutinib -0.024 | [1] -0.134 | ralimetinib 0.137 | [2] -0.067 | [4] 0.124 | pinometostat 0 | [5] -0.104 | [6] 0.064 | [7] -0.027 | [8] 0.079 | [9] 0.058 | Nexturastat A 0.044 | vemurafenib 0.048 | [10] 0.208 | [11] 0.095 | givinostat 0.109 | barasertib 0.014

HHEX (UniProt Q03014)
inactive: IRAK-1-4 Inhibitor I 0.045 | ibrutinib 0.059 | [1] 0.005 | ralimetinib -0.059 | [2] -0.064 | [3] -0.113 | [4] 0.189 | pinometostat -0.075 | [5] -0.074 | [6] -0.03 | [7] 0.045 | [8] -0.009 | [9] -0.055 | Nexturastat A 0.05 | vemurafenib -0.081 | [10] 0 | [11] 0.026 | givinostat -0.026 | barasertib -0.003

Carrying on.

HLTF (UniProt Q14527)
active: [3] 0.332
inactive: IRAK-1-4 Inhibitor I -0.026 | ibrutinib -0.028 | [1] -0.134 | ralimetinib -0.016 | [2] -0.022 | [4] 0.109 | pinometostat -0.024 | [5] 0.176 | [6] 0.04 | [7] -0.014 | [8] -0.056 | [9] 0.038 | Nexturastat A 0.019 | vemurafenib 0.047 | [10] 0.048 | [11] 0.109 | givinostat 0.018 | barasertib 0.007

HMG20B (UniProt Q9P0W2)
inactive: IRAK-1-4 Inhibitor I -0.257 | ibrutinib -0.097 | pinometostat 0.243 | [12] 0.174 | [9] -0.192 | barasertib -0.156

HK2 (UniProt P52789)
inactive: IRAK-1-4 Inhibitor I -0.007 | ibrutinib -0.01 | [1] -0.096 | ralimetinib -0.037 | [2] -0.046 | [3] 0.096 | [4] -0.022 | pinometostat -0.001 | [5] 0.034 | [7] -0.028 | [8] 0 | [9] 0.019 | Nexturastat A 0.017 | vemurafenib 0.003 | [10] 0.027 | [11] -0.041 | givinostat -0.016 | barasertib 0.051
active: [6] -0.257

HMGB3 (UniProt O15347)
inactive: IRAK-1-4 Inhibitor I 0.071 | ibrutinib 0.038 | [1] 0.083 | ralimetinib 0.163 | [2] -0.007 | [3] 0.068 | [4] 0.001 | pinometostat -0.019 | [5] 0.016 | [6] -0.012 | [7] 0 | [8] 0.006 | [9] 0.011 | Nexturastat A -0.014 | vemurafenib -0.083 | [10] 0.011 | [11] 0.202 | givinostat -0.016 | barasertib -0.008

HSPA2 (UniProt P54652)
active: [3] -0.441
inactive: IRAK-1-4 Inhibitor I 0.008 | ibrutinib -0.006 | [1] -0.28 | ralimetinib 0.01 | [4] 0.041 | pinometostat 0.05 | [6] -0.109 | [7] 0.046 | [9] -0.039 | [11] 0.057 | givinostat 0.13 | barasertib -0.004

HSPA8 (UniProt E9PK54)
inactive: IRAK-1-4 Inhibitor I -0.051 | ibrutinib -0.012 | [1] 0.015 | ralimetinib -0.161 | [2] 0.058 | [3] 0.141 | [4] 0.074 | pinometostat 0.001 | [5] -0.262 | [6] 0.023 | [7] 0.034 | [8] -0.123 | [9] 0.006 | Nexturastat A 0.227 | vemurafenib -0.036 | [10] 0.026 | [11] -0.098 | givinostat 0.167 | barasertib -0.023

HNRNPL (UniProt P14866)
inactive: IRAK-1-4 Inhibitor I -0.198 | ibrutinib 0.039 | [1] -0.051 | ralimetinib 0.067 | [2] 0.059 | [3] -0.268 | [4] 0.396 | pinometostat 0.156 | [5] -0.152 | [6] 0.093 | [7] -0.065 | [8] -0.055 | [9] 0.253 | Nexturastat A 0.359 | [10] 0.074 | [11] -0.126 | givinostat 0.248 | barasertib -0.029
